The target of this experiment is Pol2, large subunit of DNA polymerase ε (S. cerevisiae) (UniProt P21951). Briefly: co-IP; yeast cell extracts in 50 mM Tris-HCl pH 7.5, 150 mM NaCl, 0.1% Triton X-100, protease inhibitors and benzonase; IgG coated Dynabeads (Protein A pulldown) or Protein A Dynabeads with epitope-specific antibody.

Chains of the proteins cited; added tags and fusions are not shown. Lines headed by an entry give the natural chain unless they say otherwise; changes in a name come on top.
UniProt P21951: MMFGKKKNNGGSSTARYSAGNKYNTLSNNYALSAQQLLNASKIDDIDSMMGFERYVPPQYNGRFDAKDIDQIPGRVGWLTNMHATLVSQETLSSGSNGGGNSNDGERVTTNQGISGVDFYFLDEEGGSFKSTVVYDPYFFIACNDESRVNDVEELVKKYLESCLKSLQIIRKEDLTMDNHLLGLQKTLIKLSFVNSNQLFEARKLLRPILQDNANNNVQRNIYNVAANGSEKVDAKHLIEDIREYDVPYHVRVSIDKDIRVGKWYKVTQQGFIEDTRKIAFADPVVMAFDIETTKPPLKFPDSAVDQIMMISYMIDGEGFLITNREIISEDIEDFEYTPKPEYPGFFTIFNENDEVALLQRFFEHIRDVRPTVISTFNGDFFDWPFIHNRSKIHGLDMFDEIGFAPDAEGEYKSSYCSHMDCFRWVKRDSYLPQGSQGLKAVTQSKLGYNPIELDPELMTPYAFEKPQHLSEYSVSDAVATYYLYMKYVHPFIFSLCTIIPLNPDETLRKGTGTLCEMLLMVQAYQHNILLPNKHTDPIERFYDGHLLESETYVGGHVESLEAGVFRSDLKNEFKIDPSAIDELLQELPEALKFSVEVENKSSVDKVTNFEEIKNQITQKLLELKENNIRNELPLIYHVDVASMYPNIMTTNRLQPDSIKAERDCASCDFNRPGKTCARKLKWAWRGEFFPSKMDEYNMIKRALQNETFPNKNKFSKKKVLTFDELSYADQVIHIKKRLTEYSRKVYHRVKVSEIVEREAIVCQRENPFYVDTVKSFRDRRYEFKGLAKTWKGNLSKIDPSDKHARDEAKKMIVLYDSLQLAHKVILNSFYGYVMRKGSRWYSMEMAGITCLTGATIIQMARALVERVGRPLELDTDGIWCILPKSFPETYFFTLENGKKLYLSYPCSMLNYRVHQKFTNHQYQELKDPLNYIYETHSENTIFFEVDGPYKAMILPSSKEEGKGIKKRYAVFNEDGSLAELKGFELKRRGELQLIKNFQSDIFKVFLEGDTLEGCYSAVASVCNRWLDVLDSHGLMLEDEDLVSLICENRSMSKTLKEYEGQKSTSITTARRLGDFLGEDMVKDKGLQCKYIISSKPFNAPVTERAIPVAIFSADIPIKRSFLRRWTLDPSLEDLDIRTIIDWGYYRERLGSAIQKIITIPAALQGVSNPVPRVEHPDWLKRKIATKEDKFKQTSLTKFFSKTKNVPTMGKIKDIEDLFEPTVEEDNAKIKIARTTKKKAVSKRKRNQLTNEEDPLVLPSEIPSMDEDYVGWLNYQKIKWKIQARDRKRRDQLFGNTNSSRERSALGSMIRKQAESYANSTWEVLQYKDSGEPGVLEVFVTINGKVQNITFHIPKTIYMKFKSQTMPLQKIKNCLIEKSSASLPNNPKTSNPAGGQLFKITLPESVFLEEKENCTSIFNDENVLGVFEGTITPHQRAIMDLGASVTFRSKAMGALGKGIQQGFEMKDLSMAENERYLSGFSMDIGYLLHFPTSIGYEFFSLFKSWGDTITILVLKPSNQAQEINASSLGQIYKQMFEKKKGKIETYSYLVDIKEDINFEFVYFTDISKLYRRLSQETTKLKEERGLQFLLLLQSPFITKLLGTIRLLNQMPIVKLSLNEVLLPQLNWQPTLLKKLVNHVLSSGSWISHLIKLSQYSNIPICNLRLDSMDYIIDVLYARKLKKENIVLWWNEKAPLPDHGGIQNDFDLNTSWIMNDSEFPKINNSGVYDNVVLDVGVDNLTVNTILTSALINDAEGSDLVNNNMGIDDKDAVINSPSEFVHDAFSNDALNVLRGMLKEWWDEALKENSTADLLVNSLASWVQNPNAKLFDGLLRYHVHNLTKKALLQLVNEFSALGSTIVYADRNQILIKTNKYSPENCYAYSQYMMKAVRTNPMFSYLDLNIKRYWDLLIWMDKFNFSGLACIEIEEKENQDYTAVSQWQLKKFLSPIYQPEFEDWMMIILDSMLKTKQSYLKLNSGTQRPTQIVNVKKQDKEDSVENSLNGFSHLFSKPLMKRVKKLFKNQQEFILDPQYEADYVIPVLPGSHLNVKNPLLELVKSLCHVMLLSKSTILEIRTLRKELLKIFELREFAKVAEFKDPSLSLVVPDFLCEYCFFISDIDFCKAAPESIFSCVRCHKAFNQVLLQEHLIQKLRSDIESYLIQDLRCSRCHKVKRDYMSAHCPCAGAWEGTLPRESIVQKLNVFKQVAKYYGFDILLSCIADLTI
UniProt P49956: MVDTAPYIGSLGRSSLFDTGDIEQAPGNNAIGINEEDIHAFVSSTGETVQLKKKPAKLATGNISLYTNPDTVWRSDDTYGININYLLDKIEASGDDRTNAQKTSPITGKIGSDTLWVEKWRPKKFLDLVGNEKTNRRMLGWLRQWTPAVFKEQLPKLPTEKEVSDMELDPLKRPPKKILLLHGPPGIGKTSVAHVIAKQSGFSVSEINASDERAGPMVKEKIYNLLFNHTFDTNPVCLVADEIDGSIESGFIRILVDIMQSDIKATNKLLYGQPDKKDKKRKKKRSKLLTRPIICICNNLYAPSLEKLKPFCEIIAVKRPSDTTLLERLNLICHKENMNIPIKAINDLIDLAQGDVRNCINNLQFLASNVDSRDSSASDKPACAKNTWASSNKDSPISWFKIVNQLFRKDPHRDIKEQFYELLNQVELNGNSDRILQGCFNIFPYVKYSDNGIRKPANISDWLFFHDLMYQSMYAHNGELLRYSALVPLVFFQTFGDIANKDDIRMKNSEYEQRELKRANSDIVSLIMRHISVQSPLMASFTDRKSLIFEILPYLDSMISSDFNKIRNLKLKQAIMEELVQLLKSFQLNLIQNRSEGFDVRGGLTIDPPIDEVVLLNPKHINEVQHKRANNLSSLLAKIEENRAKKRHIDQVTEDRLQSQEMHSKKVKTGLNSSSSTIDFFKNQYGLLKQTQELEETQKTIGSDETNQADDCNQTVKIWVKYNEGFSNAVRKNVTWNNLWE

Results are given in words; binding and its absence hold for the method and conditions named. In cells and extracts the contact can be indirect. Some entries that bind do so weakly or less than the wild type.

With “Ctf18-RFC complex (from UniProt P49956 1-741; P38877 1-133; P25559 1-380; P40348 1-353; P38629 1-340; P40339 1-323; P38251 1-354)”, the binding entry is on record as “binds”.

For the origin of these results see PMC7242910.
